The assay addresses FLAG-tagged DCAF15 (DDB1- and Cul4-Associated Factor 15) (human) (UniProt Q66K64). The experiment in a line: co-IP; FLAG-immunoprecipitation from HEK293T cells transiently transfected with FLAG-DCAF15, HA-SMC1A, HA-PDS5A and HA-CDCA5, before an in vitro ubiquitination assay; Western blot.

The text below walks through data of publication PMC11222469.

Results are given in words; binding and its absence hold for the method and conditions named. In cells and extracts the contact can be indirect. Some entries that bind do so weakly or less than the wild type. Tags and fused reporters may be left off the sequences shown.

B1: HA-PDS5A (protein, UniProt Q29RF7 1-1337)
chain: MDFTAQPKPATALCGVVSADGKIAYPPGVKEITDKITTDEMIKRLKMVVKTFMDMDQDSEDEKQQYLPLALHLASEFFLRNPNKDVRLLVACCLADIFRIYAPEAPYTSHDKLKDIFLFITRQLKGLEDTKSPQFNRYFYLLENLAWVKSYNICFELEDCNEIFIQLFRTLFSVINNSHNKKVQMHMLDLMSSIIMEGDGVTQELLDSILINLIPAHKNLNKQSFDLAKVLLKRTVQTIEACIANFFNQVLVLGRSSVSDLSEHVFDLIQELFAIDPHLLLSVMPQLEFKLKSNDGEERLAVVRLLAKLFGSKDSDLATQNRPLWQCFLGRFNDIHVPVRLESVKFASHCLMNHPDLAKDLTEYLKVRSHDPEEAIRHDVIVTIITAAKRDLALVNDQLLGFVRERTLDKRWRVRKEAMMGLAQLYKKYCLHGEAGKEAAEKVSWIKDKLLHIYYQNSIDDKLLVEKIFAQYLVPHNLETEERMKCLYYLYASLDPNAVKALNEMWKCQNMLRSHVRELLDLHKQPTSEANCSAMFGKLMTIAKNLPDPGKAQDFVKKFNQVLGDDEKLRSQLELLISPTCSCKQADICVREIARKLANPKQPTNPFLEMVKFLLERIAPVHIDSEAISALVKLMNKSIEGTADDEEEGVSPDTAIRSGLELLKVLSFTHPTSFHSAETYESLLQCLRMEDDKVAEAAIQIFRNTGHKIETDLPQIRSTLIPILHQKAKRGTPHQAKQAVHCIHAIFTNKEVQLAQIFEPLSRSLNADVPEQLITPLVSLGHISMLAPDQFASPMKSVVANFIVKDLLMNDRSTGEKNGKLWSPDEEVSPEVLAKVQAIKLLVRWLLGMKNNQSKSANSTLRLLSAMLVSEGDLTEQKRISKSDMSRLRLAAGSAIMKLAQEPCYHEIITPEQFQLCALVINDECYQVRQIFAQKLHKALVKLLLPLEYMAIFALCAKDPVKERRAHARQCLLKNISIRREYIKQNPMATEKLLSLLPEYVVPYMIHLLAHDPDFTRSQDVDQLRDIKECLWFMLEVLMTKNENNSHAFMKKMAENIKLTRDAQSPDESKTNEKLYTVCDVALCVINSKSALCNADSPKDPVLPMKFFTQPEKDFCNDKSYISEETRVLLLTGKPKPAGVLGAVNKPLSATGRKPYVRSTGTETGSNINVNSELNPSTGNRSREQSSEAAETGVSENEENPVRIISVTPVKNIDPVKNKEINSDQATQGNISSDRGKKRTVTAAGAENIQQKTDEKVDESGPPAPSKPRRGRRPKSESQGNATKNDDLNKPINKGRKRAAVGQESPGGLEAGNAKAPKLQDLAKKAAPAERQIDLQR
For the molecule B1, the binding entry is reported as “binds”.
